Taken from: PubChem BioAssay AID1053208 (Peter MacCallum Cancer Centre, 2014)
The whole screen tested about 17,000 reagents; shown is an unselected part. 788 of all reagents (4.7%) count as active. 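Calls rest on z-score classes alone; an extra cut-off of viability at most 70% of control was not applied to them.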 Not all columns of the deposit are shown. No sequences are given here.

Purpose: 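Genes whose silencing cuts survival of bone tumour cells only with doxorubicin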 (primary screen)
System: mouse osteosarcoma cells, early-passage culture from an engineered mouse model of fibroblastic bone tumour
Knock-down reagent: siRNA pool against mouse genes, 40 nM
Time to read-out: about 120 h (48 h before drug, then 72 h with drug)
Challenge: doxorubicin 100 nM for 72 h, roughly 30-40% inhibitory dose
Measured: 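Viability read as ATP luminescence after 72 h of 100 nM doxorubicin or none, duplicate wells averaged, scaled to non-targeting siRNA, then expressed as robust z-scores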
Direction: viability z-score with doxorubicin: higher = more viable cells under doxorubicin; viability z-score without drug: higher = more viable cells with knock-down alone; z-score of drug to no-drug ratio: higher = less drug sensitisation by knock-down
Rule for the call: 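a pool counts as active when its viability z-score with doxorubicin is -2 or below and its z-score without drug lies between -2 and 2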

gene symbol | combined z-score class | viability z-score with doxorubicin | viability z-score without drug | z-score of drug to no-drug ratio | outcome
Pramel1 | no change with or without drug | -1.35 | -1.52 | -0.34 | inactive
Tsc22d1 | low cell count with doxorubicin only | -2.36 | -0.84 | -1.91 | active
Ror1 | no change with or without drug | 1.57 | -0.17 | 1.91 | inactive
Guca2a | no change with or without drug | 0.34 | 0.17 | 0.34 | inactive
Wdr86 | no change with or without drug | 1.01 | 0.51 | 0.79 | inactive
Scube1 | no change with or without drug | 1.12 | 0.51 | 0.9 | inactive

3 entries from above, reformatted:
gene symbol,combined z-score class,viability z-score with doxorubicin,viability z-score without drug,z-score of drug to no-drug ratio,outcome
Ror1,no change with or without drug,1.57,-0.17,1.91,inactive
Guca2a,no change with or without drug,0.34,0.17,0.34,inactive
Wdr86,no change with or without drug,1.01,0.51,0.79,inactive

The list goes on:
gene symbol | combined z-score class | viability z-score with doxorubicin | viability z-score without drug | z-score of drug to no-drug ratio | outcome
Ube2l6 | no change with or without drug | -0.22 | 0.51 | -0.45 | inactive
Neurl1a | no change with or without drug | 1.12 | 0.84 | 0.67 | inactive
Cyp4a14 | no change with or without drug | -0.56 | -0.17 | -0.34 | inactive
Arhgap33 | no change with or without drug | -1.69 | -0.84 | -1.12 | inactive
Mip | no change with or without drug | -0.56 | 1.18 | -1.24 | inactive
Colec12 | high cell count without drug only | 1.35 | 2.02 | 0.11 | inactive
Pctp | high cell count with and without drug | 2.92 | 3.2 | 0.79 | inactive
Col11a1 | no change with or without drug | 0 | -0.51 | 0.45 | inactive
Slc35c1 | no change with or without drug | -0.22 | 1.52 | -1.12 | inactive
Gria2 | no change with or without drug | 0 | -1.18 | 1.01 | inactive
Exd2 | no change with or without drug | -1.01 | 0.51 | -1.24 | inactive
Lipt2 | no change with or without drug | 0.67 | -0.51 | 1.24 | inactive
Klrc3 | low cell count with doxorubicin only | -2.25 | -1.85 | -1.12 | active
Osr2 | no change with or without drug | -1.8 | -1.52 | -0.79 | inactive
